## Cell number after 72 h of treatment

Values as published with doi:10.1371/journal.pone.0140310, rounded.

Drugs:
VX-702: NC(=O)c1ccc(N(C(N)=O)c2c(F)cccc2F)nc1-c1ccc(F)cc1F at 2000 nM
gemcitabine: Nc1ccn([C@@H]2O[C@H](CO)[C@@H](O)C2(F)F)c(=O)n1 at 2 nM
veliparib: C[C@]1(c2nc3c(C(N)=O)cccc3[nH]2)CCCN1 at 7000 nM
nilutamide: CC1(C)NC(=O)N(c2ccc([N+](=O)[O-])c(C(F)(F)F)c2)C1=O at 5000 nM
PF-562271: CN(c1ncccc1CNc1nc(Nc2ccc3c(c2)CC(=O)N3)ncc1C(F)(F)F)S(C)(=O)=O at 400 nM
everolimus: CO[C@H]1C[C@@H]2CC[C@@H](C)[C@@](O)(O2)C(=O)C(=O)N2CCCC[C@H]2C(=O)O[C@H]([C@H](C)C[C@@H]2CC[C@@H](OCCO)[C@H](OC)C2)CC(=O)[C@H](C)/C=C(\C)[C@@H](O)[C@@H](OC)C(=O)[C@H](C)C[C@H](C)/C=C/C=C/C=C/1C at 100 nM
docetaxel: CC(=O)O[C@@]12CO[C@@H]1C[C@H](O)[C@@]1(C)C(=O)[C@H](O)C3=C(C)[C@@H](OC(=O)[C@H](O)[C@@H](NC(=O)OC(C)(C)C)c4ccccc4)C[C@@](O)([C@@H](OC(=O)c4ccccc4)[C@H]21)C3(C)C at 0.5 nM
tanespimycin: C=CCNC1=C2C[C@@H](C)C[C@H](OC)[C@H](O)[C@@H](C)/C=C(\C)[C@H](OC(N)=O)[C@@H](OC)/C=C\C=C(/C)C(=O)NC(=CC1=O)C2=O at 10 nM
midostaurin: CO[C@@H]1[C@H](N(C)C(=O)c2ccccc2)C[C@H]2O[C@]1(C)n1c3ccccc3c3c4c(c5c6ccccc6n2c5c31)C(=O)NC4 at 400 nM
embelin: CCCCCCCCCCCC1=C(O)C(=O)C=C(O)C1=O at 6000 nM
cediranib: COc1cc2c(Oc3ccc4[nH]c(C)cc4c3F)ncnc2cc1OCCCN1CCCC1 at 2000 nM
BI-78D3: O=c1[nH]nc(Sc2ncc([N+](=O)[O-])s2)n1-c1ccc2c(c1)OCCO2 at 1000 nM
temozolomide: Cn1nnc2c(C(N)=O)ncn2c1=O at 10000 nM
KU-0063794: COc1ccc(-c2ccc3c(N4CCOCC4)nc(N4C[C@@H](C)O[C@@H](C)C4)nc3n2)cc1CO at 100 nM
STA-4783: CN(NC(=O)CC(=O)NN(C)C(=S)c1ccccc1)C(=S)c1ccccc1 at 30 nM
dasatinib: Cc1nc(Nc2ncc(C(=O)Nc3c(C)cccc3Cl)s2)cc(N2CCN(CCO)CC2)n1 at 20 nM
NVP-TAE684: COc1cc(N2CCC(N3CCN(C)CC3)CC2)ccc1Nc1ncc(Cl)c(Nc2ccccc2S(=O)(=O)C(C)C)n1 at 400 nM
vorinostat: O=C(CCCCCCC(=O)Nc1ccccc1)NO at 400 nM
nilotinib: Cc1cn(-c2cc(NC(=O)c3ccc(C)c(Nc4nccc(-c5cccnc5)n4)c3)cc(C(F)(F)F)c2)cn1 at 1000 nM
CHIR-265: Cn1c(Nc2ccc(C(F)(F)F)cc2)nc2cc(Oc3ccnc(-c4ncc(C(F)(F)F)[nH]4)c3)ccc21 at 400 nM

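Human melanoma cells were exposed to a pair of drugs for 72 h in 1,536-well plates and read by automated microscopy after fixing and staining. Each value is the count of nuclei relative to DMSO-treated wells, in %, so that 100 equals the control. Every drug was used at one fixed concentration, the higher of two screened. No replicate spread is given; individual values may be noisy.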 This is part of the screen, not chosen by result.

* KU-0063794 + everolimus : WM451Lu: 72.2; WM3619: 42.7
* STA-4783 + VX-702 : WM451Lu: 72.7; WM3619: 4.7
* VX-702 + nilotinib : WM451Lu: 137; WM3619: 85.2
* nilutamide + CHIR-265 : WM451Lu: 47.9; WM3619: 50.3
* everolimus + PF-562271 : WM451Lu: 83.3; WM3619: 57.7
* nilotinib + KU-0063794 : WM451Lu: 86.0; WM3619: 83.3
* dasatinib + VX-702 : WM451Lu: 66.8; WM3619: 75.3
* nilutamide + vorinostat : WM451Lu: 80.0; WM3619: 79.3
* embelin + STA-4783 : WM451Lu: 90.9; WM3619: 7.5
* docetaxel + nilutamide : WM451Lu: 31.7; WM3619: 83.9
* BI-78D3 + veliparib : WM451Lu: 85.2; WM3619: 118
* docetaxel + BI-78D3 : WM451Lu: 31.8; WM3619: 52.3
* gemcitabine + tanespimycin : WM451Lu: 33.7; WM3619: 76.9
* vorinostat + midostaurin : WM451Lu: 61.2; WM3619: 64.2
* STA-4783 + BI-78D3 : WM451Lu: 79.4; WM3619: 11.7
* cediranib + CHIR-265 : WM451Lu: 54.1; WM3619: 45.4
* midostaurin + gemcitabine : WM451Lu: 55.8; WM3619: 34.3
* PF-562271 + temozolomide : WM451Lu: 52.2; WM3619: 70.5
* temozolomide + VX-702 : WM451Lu: 96.5; WM3619: 112
* embelin + VX-702 : WM451Lu: 107; WM3619: 98.9
* PF-562271 + CHIR-265 : WM451Lu: 59.8; WM3619: 24.1
* vorinostat + nilotinib : WM451Lu: 80.4; WM3619: 92.2
* nilutamide + gemcitabine : WM451Lu: 50.2; WM3619: 50.7
* NVP-TAE684 + STA-4783 : WM451Lu: 68.3; WM3619: 7.6
* everolimus + tanespimycin : WM451Lu: 52.2; WM3619: 50.5
* NVP-TAE684 + cediranib : WM451Lu: 90.6; WM3619: 75.0
* nilotinib + cediranib : WM451Lu: 114; WM3619: 101
* gemcitabine + dasatinib : WM451Lu: 39.4; WM3619: 46.9
* dasatinib + BI-78D3 : WM451Lu: 58.9; WM3619: 71.3
* docetaxel + veliparib : WM451Lu: 21.6; WM3619: 41.3
* STA-4783 + docetaxel : WM451Lu: 41.7; WM3619: 6.5
* docetaxel + vorinostat : WM451Lu: 40.5; WM3619: 49.1
* CHIR-265 + STA-4783 : WM451Lu: 45.1; WM3619: 2.6
* everolimus + docetaxel : WM451Lu: 26.3; WM3619: 52.3

For reference, 4 entries once more:

Drugs	WM451Lu	WM3619
everolimus + tanespimycin	52.2	50.5
embelin + VX-702	107	98.9
everolimus + docetaxel	26.3	52.3
KU-0063794 + everolimus	72.2	42.7